{"source": "PubChem BioAssay AID540256", "about": "(National Center for Advancing Translational Sciences (NCATS), 2011)", "note": "The whole screen tested about 300,000 compounds, of which about 3,700 (1.2%) were called active. The shares of active, inactive and inconclusive entries below differ from those in the screen. The call rests on the fitted dose curve; tested in HEK293 cells. Potencies beside an inconclusive call are fits to weak or partial responses and may not hold up. Potency means the concentration at half of the fitted maximal effect."}
{"test": "qHTS for Inhibitors of binding or entry into cells for Lassa Virus; further: nearly all actives have a fitted effect of over 50% in size", "conditions": "Lassa virus pseudotype entry inhibition, cell reporter; series mostly up to 37.9 µM"}
{"smiles": "COc1ccc(-n2c(COc3cccc4ccccc34)nnc2SCC(=O)NCc2ccco2)cc1", "Potency": "inconclusive: 20.6 µM [inhibitor, partial curve, poor fit]"}
{"smiles": "CCN1CCCC1CNC(=O)C(=O)Nc1ccccc1", "note": "(centres undefined)", "Potency": "inactive"}
{"smiles": "COC(=O)Nc1nnc(/C=C/c2ccc(OC)cc2)s1", "Potency": "inconclusive: 11.2 µM [inhibitor, partial curve, poor fit]"}
{"smiles": "O=C(O)C/C(=C\\c1cc2c(cc1Br)OCO2)c1nc2ccccc2s1", "Potency": "inactive"}
{"smiles": "COc1cccc(NC(=O)C(=O)NCc2ccncc2)c1", "Potency": "inactive"}
{"smiles": "CCOC(=O)c1sc(NC(=O)c2sc(C)nc2C)nc1C", "Potency": "inconclusive: 3.16 µM [activator, single point]"}
{"smiles": "CC(=O)c1cccc(NC(=O)Nc2ccc3c(c2)OCO3)c1", "Potency": "inactive"}
{"smiles": "O=C(/C=C/c1ccc(O)cc1)c1ccc(NC2=C(N3CCCCC3)C(=O)c3ccccc3C2=O)cc1", "Potency": "inconclusive: 31.6 µM [inhibitor, single point]"}
{"smiles": "CN(CC(=O)NC1CCCCCC1)S(=O)(=O)c1ccccc1", "Potency": "inconclusive: 3.26 µM [activator, single point]"}
{"smiles": "COc1ccc(S(=O)(=O)N2CCC(c3cc(-c4cccc5ccccc45)n[nH]3)CC2)cc1", "Potency": "inactive"}
{"smiles": "COc1ccc(C(=O)c2ccc(Cl)cc2)c(OC)c1OC", "Potency": "inconclusive: 0.794 µM [inhibitor, single point]"}
{"smiles": "CCc1nc2ccccc2c(C(=O)OCC(=O)C(C)(C)C)c1C", "Potency": "inactive"}
{"smiles": "Cc1ccc(Cn2nnnc2CN2CCC(O)(c3ccccc3F)CC2)cc1", "Potency": "inconclusive: 8.2 µM [inhibitor, partial curve, poor fit]"}
{"smiles": "Cc1ccc(NC(=O)c2ccc(CSc3ccccn3)cc2)cc1", "Potency": "inconclusive: 11.2 µM [inhibitor, partial curve]"}
{"smiles": "CCOC(=O)c1[nH]c2ccc(Br)cc2c1NC(=O)CCN1CCCC(C)(C)C1", "Potency": "inconclusive: 29.1 µM [inhibitor, single point]"}
{"smiles": "CCN(CC)S(=O)(=O)c1ccc(C)c(C)c1", "Potency": "inactive"}
{"smiles": "CCOC(=O)c1cn[nH]c1NC(=S)Nc1ccc(OC)cc1", "Potency": "inconclusive: 10 µM [inhibitor, partial curve, poor fit]"}
{"smiles": "CCOC(=O)Cc1csc(NC(=O)COc2cccc(C)c2)n1", "Potency": "inconclusive: 0.92 µM [inhibitor, partial curve, poor fit]"}
{"smiles": "CC(NC(=O)CN(c1ccc(Cl)cc1Cl)S(=O)(=O)c1ccccc1)c1ccccc1", "note": "(centres undefined)", "Potency": "inconclusive: 2.24 µM [inhibitor, full curve, poor fit]"}
{"smiles": "O=C(Cn1c(-c2cccs2)cc2cc(Cl)ccc21)N1CCN(c2ccccc2F)CC1", "Potency": "inconclusive: 7.08 µM [inhibitor, full curve]"}
{"smiles": "CC(C)CNC(=O)c1cccc(NC(=O)C(C)Oc2ccccc2)c1", "note": "(centres undefined)", "Potency": "inconclusive: 7.94 µM [inhibitor, partial curve, poor fit]"}
{"smiles": "CCOc1cccc2cc(C(=O)Oc3ccc(OC)cc3)c(=O)oc12", "Potency": "inactive"}
{"smiles": "Cc1ccccc1C(=O)N(Cc1nc(-c2ccc(Cl)cc2)no1)C(C)C", "Potency": "inconclusive: 25.1 µM [inhibitor, single point]"}
{"smiles": "CCN(CC)c1ccc(/C=N/NC(=O)c2ccco2)cc1", "Potency": "active: 4.47 µM"}
{"smiles": "CCOC(=O)c1cc(C)sc1NC(=S)Nc1ccccc1", "Potency": "inconclusive: 0.58 µM [activator, full curve, poor fit]"}
{"smiles": "Cc1ccc(-n2ncc(C(=O)NCCc3c[nH]c4ccccc34)c2C2CCN(C(=O)OC(C)(C)C)CC2)cc1C", "Potency": "inconclusive: 8.91 µM [inhibitor, partial curve, poor fit]"}
{"smiles": "O=C(N/N=C/c1cc(Br)c(O)c(Br)c1O)c1ccc2c(c1)OCCO2", "Potency": "inconclusive: 35.5 µM [inhibitor, single point]"}
{"smiles": "O=C(NC1CCCc2ccccc21)c1ccccc1", "note": "(centres undefined)", "Potency": "inconclusive: 7.94 µM [activator, partial curve, poor fit]"}
{"smiles": "CC(CNC(=O)CCc1nnc(CCC2CCCCC2)o1)c1ccccc1", "note": "(centres undefined)", "Potency": "inconclusive: 11.2 µM [activator, partial curve, poor fit]"}
{"smiles": "COc1ccc(OC)c(N2C(=O)NC(=O)/C(=C\\c3ccc([N+](=O)[O-])s3)C2=O)c1", "Potency": "inactive"}
{"smiles": "Cc1ccc(OCC(=O)NNC(=O)CSC(=S)N2CCCC2)cc1", "Potency": "inactive"}
{"smiles": "Cc1ccc(NC(=S)NCC2CCCO2)cc1", "note": "(centres undefined)", "Potency": "inconclusive: 35.5 µM [inhibitor, single point]"}
{"smiles": "CCCCS(=O)(=O)/C=C\\C1C2C=CC(C2)C1S(=O)(=O)CCCC", "note": "(centres undefined)", "Potency": "inconclusive: 10 µM [activator, partial curve, poor fit]"}
{"smiles": "CC(=O)Oc1ccc2c(C)cc(=O)[nH]c2c1", "Potency": "inactive"}
{"smiles": "COc1cc(C(C#N)N2CCOCC2)ccc1O", "note": "(centres undefined)", "Potency": "inconclusive: 2.31 µM [activator, partial curve, poor fit]"}
{"smiles": "CCN(CC(=O)Nc1ccc2c(c1)OCCO2)C(=O)CC(NC(C)=O)c1ccccc1", "note": "(centres undefined)", "Potency": "inconclusive: 20 µM [activator, partial curve, poor fit]"}
{"smiles": "CCCCN(C)S(=O)(=O)c1ccc(C(=O)N=c2sc3cc(NC(C)=O)ccc3n2C)cc1", "Potency": "inactive"}
{"smiles": "CC(=O)/C=C/n1c(=S)oc2ccccc21", "Potency": "inconclusive: 10 µM [inhibitor, partial curve, poor fit]"}
{"smiles": "CCc1nc(SCC(=O)Nc2nc3c(s2)CCCC3)c2ccccc2n1", "Potency": "inconclusive: 29.1 µM [inhibitor, single point]"}
{"smiles": "CCOC(=O)c1c(CSC(=N)N)n(C)c2cc(Br)c(OC(C)=O)cc12", "Potency": "inconclusive: 20 µM [inhibitor, single point]"}
{"smiles": "CCC(C)[C@H](N)c1nnc(SCC(=O)c2ccc(Cl)cc2)o1", "note": "(some centres undefined)", "Potency": "inconclusive: 1.83 µM [inhibitor, partial curve, poor fit]"}
{"smiles": "CC1C(=O)N(Cc2cn(Cc3ccco3)nn2)CCS(=O)(=O)N1Cc1ccc(-c2ccncc2)cc1", "note": "(centres undefined)", "Potency": "inactive"}
{"smiles": "Ic1ccccc1CNC1C2CCN(CC2)C1C(c1ccccc1)c1ccccc1", "note": "(centres undefined)", "Potency": "active: 6.51 µM"}
{"smiles": "N=C1c2ccccc2CN1c1ccc(S(=O)(=O)N2CCCCC2)cc1", "Potency": "inactive"}
